Measurements reported in patent US8119641B2, “1H-furo[3,2-C]pyrazole compounds useful as kinase inhibitors” (Nerviano Medical Sciences S.R.L., priority 2006, dated 2012).
Some entries share one result that the patent states for a list of compounds.

molecular target: T1, Aurora-2 (Homo sapiens, UniProt O14965); experiment: Inhibition assay of Aurora-2 activity (SPA); format: biochemical
T1 sequence (O14965 1-403): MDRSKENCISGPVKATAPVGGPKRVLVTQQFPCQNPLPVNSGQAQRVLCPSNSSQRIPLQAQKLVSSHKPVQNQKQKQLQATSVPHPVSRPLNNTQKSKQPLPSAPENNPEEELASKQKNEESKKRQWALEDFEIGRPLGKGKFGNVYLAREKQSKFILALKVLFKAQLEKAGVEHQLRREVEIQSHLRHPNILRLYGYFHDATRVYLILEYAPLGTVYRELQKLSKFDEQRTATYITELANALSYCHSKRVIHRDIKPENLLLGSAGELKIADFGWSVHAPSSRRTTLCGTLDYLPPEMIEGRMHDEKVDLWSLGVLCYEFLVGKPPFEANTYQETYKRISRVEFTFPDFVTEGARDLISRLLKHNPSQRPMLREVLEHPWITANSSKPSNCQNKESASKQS
Procedure: The inhibiting activity and the potency of selected compounds is determined through a method of assay based on the use of the SPA technology (Amersham Pharmacia Biotech).
The assay consists of the transfer of radioactivity labelled phosphate moiety by the kinase to a biotinylated substrate. The resulting 33P-labelled biotinylated product is allowed to bind to streptavidin-coated SPA beads (biotin capacity 130 pmol/mg), and light emitted was measured in a scintillation counter.
Inhibition Assay of Aurora-2 Activity
Kinase reaction: 8 μM biotinylated peptide (4 repeats of LRRWSLG), 10 μM ATP (0.5 uCi P^33γ-ATP), 7.5 ng Aurora 2, inhibitor in a final volume of 30 μl buffer (HEPES 50 mM pH 7.0, MgCl2 10 mM, 1 mM DTT, 0.2 mg/mL BSA, 3 μM orthovanadate) were added to each well of a 96 U bottom well plate. After 60 minutes at room temperature incubation, reaction was stopped and biotinylated peptide captured by adding 100 μl of bead suspension.
Stratification: 100 μl of CsCl 5 M were added to each well and let stand 4 hour before radioactivity was counted in the Top-Count instrument.
IC50 determination: inhibitors were tested at different concentrations ranging from 0.0015 to 10 μM. Experimental data were analyzed by the computer program GraphPad Prizm using the four parameter logistic equation: y=bottom+(top−bottom)/(1+10^((log IC50−x)*slope)) where x is the logarithm of the inhibitor concentration, y is the response; y starts at bottom and goes to top with a sigmoid shape.

IC50, < 50 nM:
CC(C)(NC(=O)c1cc2[nH]nc(NC(=O)c3ccccc3NC(=O)c3cccs3)c2o1)c1ccccc1 [(2), 3-{2-[(Thiophene-2-carbonyl)-amino]-benzoylamino}-1H-furo[3,2-c]pyrazole-5-carboxylic acid (1-methyl-1-phenyl-ethyl)-amide]
CC(C)(NC(=O)c1cc2[nH]nc(NC(=O)c3ccccc3NC(=O)c3ccc[nH]3)c2o1)c1ccccc1F [(5), 3-{2-[(1H-Pyrrole-2-carbonyl)-amino]-benzoylamino}-1H-furo[3,2-c]pyrazole-5-carboxylic acid [1-(2-fluoro-phenyl)-1-methyl-ethyl]-amide]
Cn1cccc1C(=O)Nc1ccccc1C(=O)Nc1n[nH]c2cc(C(=O)NC(C)(C)c3ccccc3)oc12 [(7), 3-{2-[(1-Methyl-1H-pyrrole-2-carbonyl)-amino]-benzoylamino}-1H-furo[3,2-c]pyrazole-5-carboxylic acid (1-methyl-1-phenyl-ethyl)-amide]
Cn1nccc1C(=O)Nc1ccccc1C(=O)Nc1n[nH]c2cc(C(=O)NC(C)(C)c3ccccc3)oc12 [(8), 3-{2-[(2-Methyl-2H-pyrazole-3-carbonyl)-amino]-benzoylamino}-1H-furo[3,2-c]pyrazole-5-carboxylic acid (1-methyl-1-phenyl-ethyl)-amide]
Cn1ccc(C(=O)Nc2ccccc2C(=O)Nc2n[nH]c3cc(C(=O)NC(C)(C)c4ccccc4)oc23)n1 [(9), 3-{2-[(1-Methyl-1H-pyrazole-3-carbonyl)-amino]-benzoylamino}-1H-furo[3,2-c]pyrazole-5-carboxylic acid (1-methyl-1-phenyl-ethyl)-amide]
CC(C)(NC(=O)c1cc2[nH]nc(NC(=O)c3ccccc3NC(=O)c3ccccc3)c2o1)c1ccccc1 [(10), 3-(2-Benzoylamino-benzoylamino)-1H-furo[3,2-c]pyrazole-5-carboxylic acid (1-methyl-1-phenyl-ethyl)-amide amide]
Cc1cc(C(=O)Nc2ccccc2C(=O)Nc2n[nH]c3cc(C(=O)NC(C)(C)c4ccccc4)oc23)n[nH]1 [(11), 3-{2-[(5-Methyl-1H-pyrazole-3-carbonyl)-amino]-benzoylamino}-1H-furo[3,2-c]pyrazole-5-carboxylic acid (1-methyl-1-phenyl-ethyl)-amide]
CC(C)(NC(=O)c1cc2[nH]nc(NC(=O)c3ccccc3NC(=O)c3cscn3)c2o1)c1ccccc1 [(12), 3-{2-[(Thiazole-4-carbonyl)-amino]-benzoylamino}-1H-furo[3,2-c]pyrazole-5-carboxylic acid (1-methyl-1-phenyl-ethyl)-amide]
CN1CCN(c2ccc(C(=O)Nc3n[nH]c4cc(C(=O)NC(C)(C)c5ccccc5)oc34)c(NC(=O)c3ccc[nH]3)c2)CC1 [(13), 3-{4-(4-Methyl-piperazin-1-yl)-2-[(1H-pyrrole-2-carbonyl)-amino]-benzoylamino}-1H-furo[3,2-c]pyrazole-5-carboxylic acid (1-methyl-1-phenyl-ethyl)-amide]
CN1CCN(c2ccc(C(=O)Nc3n[nH]c4cc(C(=O)NC(C)(C)c5ccccc5)oc34)c(NC(=O)c3cccn3C)c2)CC1 [(14), 3-{4-(4-Methyl-piperazin-1-yl)-2-[(1-methyl-1H-pyrrole-2-carbonyl)-amino]-benzoylamino}-1H-furo[3,2-c]pyrazole-5-carboxylic acid (1-methyl-1-phenyl-ethyl)-amide]
Cn1ccnc1C(=O)Nc1ccccc1C(=O)Nc1n[nH]c2cc(C(=O)NC(C)(C)c3ccccc3)oc12 [(15), 3-{2-[(1-Methyl-1H-imidazole-2-carbonyl)-amino]-benzoylamino}-1H-furo[3,2-c]pyrazole-5-carboxylic acid (1-methyl-1-phenyl-ethyl)-amide]
